This is an account of results in article PMC12431657, “Discovery and mechanistic insights of dibenzoylmethane as a broad spectrum inhibitor of coronavirus” (PLOS Pathogens, 2025).

Each structure is given as a SMILES string. Structures can show the parent of a compound that is named as a salt. Where two headings read alike, the source gives them in different places. In all, about 3,300 compounds went through this assay and about 95 (3%) showed an effect of 50% or more. Some of the results follow.

For the assay, the system named is HCoV-229E. Also noted: species or system Huh-7; HTS, protection from HCoV-229E induced cell death, luminescent cell viability (CellCounting-Lite 2.0), inhibition rate. To be noted: 24 h post infection, 1 h compound pre-incubation, 10 µM, inhibitor.

Regarding `COc1ccc2cc1Oc1ccc(cc1)C[C@H]1c3cc(c(OC)cc3CCN1C)Oc1c(OC)c(OC)cc3c1[C@H](C2)N(C)CC3` [tetrandrine], the “229E Inhibition rate” value turned out to be 4.2%.

As to `Nc1[nH]cnc2ncnc1-2` [Adenine], the “229E Inhibition rate” value (229E Inhibition rate, 24 h) worked out at 24.2%. In the case of `C=C(CCC=C(C)C)[C@H]1CC[C@]2(C)[C@@H]1[C@H](O)C[C@@H]1[C@@]3(C)C[C@@H](O)[C@H](O[C@@H]4O[C@H](CO)[C@@H](O)[C@H](O)[C@H]4O[C@@H]4O[C@H](CO)[C@@H](O)[C@H](O)[C@H]4O)C(C)(C)[C@@H]3CC[C@]12C` [Damulin B], the “229E Inhibition rate” value is reported as 3.3%. On the same count and under the same terms, with `COc1ccc(C(=O)/C=C/c2ccccc2)cc1` [4'-Methoxychalcone] the figure was 28.4%; with `O=c1c(O)c(-c2ccc(O)c(O)c2)oc2cc(O)c(O)c(O)c12` [Quercetagetin], 23%. On to `CN[C@H](CC(C)C)C(=O)N[C@H]1C(=O)N[C@@H](CC(N)=O)C(=O)N[C@H]2C(=O)N[C@H]3C(=O)N[C@H](C(=O)N[C@H](C(=O)O)c4cc(O)cc(O)c4-c4cc3ccc4O)[C@H](O)c3ccc(c(Cl)c3)Oc3cc2cc(c3O[C@@H]2O[C@H](CO)[C@@H](O)[C@H](O)[C@H]2O[C@H]2C[C@](C)(N)[C@H](O)[C@H](C)O2)Oc2ccc(cc2Cl)[C@H]1O` [Vancomycin], for which the “229E Inhibition rate” value (229E Inhibition rate, 24 h) came out at 11.7%. For the compound `O=c1oc2cc(O)ccc2c2oc3cc(O)ccc3c12` [Coumestrol], the “229E Inhibition rate” value is recorded as 16.6%. Same read-out and setting: with `Oc1cc(O)cc(/C=C/c2ccc(O)cc2O)c1` [Oxyresveratrol] the figure was 15%; with `NCc1c[nH]c2ccccc12` [Indole-3-methanamine], 10.2%. `c1c2c(cc3c1OCO3)-c1cc3ccc4c(c3c[n+]1CC2)OCO4` [Coptisine (Sulfate)]: the “229E Inhibition rate” value (229E Inhibition rate, 24 h) is reported as 3.5%.

`O=CN1C[C@@H]2C[C@H](C1)c1cccc(=O)n1C2` [N-Formylcytisine]: the “229E Inhibition rate” value came out at 32.3%.

As for `C=C1C(=O)O[C@@H]2C[C@@]3(C)CCC[C@H](C)C3=C[C@H]12` [Alantolactone], the “229E Inhibition rate” value stood at 2.9%. On the same count and under the same terms, under `CC(=O)NCCCCNCCCN` [N8-Acetylspermidine dihydrochloride] stands 37.4%; under `C[C@@H]1CC(=O)c2c(ccc3c2C(=O)c2cccc(O)c2C3=O)C1` [Ochromycinone], 13.2%; under `Cc1cc(O)cc2c1O[C@](C)(CCC[C@H](C)CCC[C@H](C)CCCC(C)C)CC2` [Delta-Tocopherol], 8.2%. On the same count and under the same terms, with `O[C@H]1[C@H]2c3cc4c(cc3CN3CCC(=C[C@@H]1O)[C@H]23)OCO4` [Lycorine] the figure was 38.3%; with `C[C@@H]1O[C@@H](O[C@H]2[C@H](Oc3cc(O)c(C(=O)CCc4ccc(O)cc4)c(O)c3)O[C@H](CO)[C@@H](O)[C@@H]2O)[C@H](O)[C@H](O)[C@H]1O` [Naringin Dihydrochalcone], 40.6%. On to `COc1cc(/C=C/C(=O)OC2[C@H](O)CC(O)(C(=O)O)C[C@H]2O)ccc1O` (stereo partly drawn) [4-Feruloylquinic acid], for which the “229E Inhibition rate” value was determined as 20.4%. The same measure, in the same setting: with `CCCCCCCCC=O` [Nonanal] the figure was 9.1%. Same read-out and setting: under `CCCCC[C@@H](O)[C@H]1C(=O)O[C@H](C)[C@@H](O)/C=C/C=C/C=C/C=C/C=C(\C)[C@@H](O)[C@H](O)[C@H](O)C[C@H](O)C[C@H](O)C[C@H](O)C[C@H](O)C[C@@H]1O` [Lagosin] stands 21.5%; under `O=c1[nH]c(=O)c2nccnc2[nH]1` [Pteridine-2,4(1H,3H)-dione], 15.9%; under `CC(=O)c1c(O)c(C)c(O)c(Cc2c(O)c3c(c(C(=O)/C=C/c4ccccc4)c2O)OC(C)(C)C=C3)c1O` [Rottlerin], 3.7%.

Turning to `OC[C@H]1NCC[C@@H](O)[C@@H]1O` [Fagomine], the “229E Inhibition rate” value came out at 9.8%. The same measure, in the same setting: with `CC(=O)c1ccc(O)c(C)c1` [4'-Hydroxy-3'-methylacetophenone] the figure was 11.7%. On the same count and under the same terms, under `CCCCCCCCCCCCCCCCCCCCC(=O)O` [Heneicosanoic acid] stands 8.6%. On the same count and under the same terms, under `CC[C@H](O)C(=O)O` [(S)-2-Hydroxybutanoic acid] stands 13.1%; under `CC(C)=CCC[C@@](C)(O)[C@H]1CC[C@]2(C)[C@@H]1[C@H](O)C[C@@H]1[C@@]3(C)C[C@@H](O)[C@H](O[C@@H]4O[C@H](CO)[C@@H](O)[C@H](O)[C@H]4O[C@@H]4O[C@H](CO)[C@@H](O)[C@H](O)[C@H]4O)C(C)(C)[C@@H]3CC[C@]12C` [Gypenoside LI], 0%. `CC(C)(O)[C@H]1CC[C@@](C)([C@H]2[C@@H](O)C[C@@]3(C)[C@@H]4C[C@H](O)[C@H]5C(C)(C)[C@@H](O)CC[C@@]56C[C@@]46CC[C@]23C)O1` [Cyclogalegenin]: the “229E Inhibition rate” value was 12.6%. Same read-out and setting: under `CC1(C)CCC2=C(O1)c1ccccc1C(=O)C2=O` [β-Lapachone] stands 1.2%; under `Nc1ncnc2c1ncn2[C@@H]1O[C@H](CO)[C@@H](O)[C@H]1OP(=O)(O)O` [Adenosine-2'-monophosphate], 18.6%; under `COc1ccc(/C=C/C(=O)c2ccc(OC)c3c2OC(C)(C)C=C3)cc1` [Millepachine], 40%. For the compound `NCCc1ccc(O)cc1` [Tyramine], the “229E Inhibition rate” value (229E Inhibition rate, 24 h) stood at 6.6%. `COc1ccc(C[C@@H]2COc3c(C)c(O)c(C)c(O)c3C2=O)cc1` [Methylophiopogonanone B]: the “229E Inhibition rate” value came to 26.7%. On the same count and under the same terms, under `CC1(C)CC[C@]2(C(=O)O)[C@H](O)C[C@]3(C)C(=CC[C@@H]4[C@@]5(C)CC[C@H](O)[C@@](C)(C=O)[C@@H]5CC[C@]43C)[C@@H]2C1` [Quillaic acid] stands 8.1%. Regarding `O=C(O)CCCC[C@@H]1SC[C@@H]2NC(=O)N[C@@H]21` [Biotin], the “229E Inhibition rate” value was determined as 15%.

Consider `COc1c2c(cc3oc(C)cc(=O)c13)O[C@H](C(C)(C)O)C2` [5-O-Methylvisamminol], for which the “229E Inhibition rate” value was 9.3%. On the same count and under the same terms, under `C=C1CC[C@H]2O[C@]2(C)CC[C@@H]2[C@@H]1CC2(C)C` [Caryophyllene oxide] stands 16.3%. Still for that read-out and setting: under `COc1cc(C[C@@H](C)[C@@H](C)Cc2ccc(O)c(OC)c2)ccc1O` [Dihydroguaiaretic acid] stands 46.5%; under `O=C(O)/C=C/c1cnc[nH]1` [Urocanic acid], 13%.
